Here are results for six molecules from patent US9164086B2, “Fluorescent dyes with phosphorylated hydroxymethyl groups and their use in light microscopy and imaging techniques” (Max-Planck-Gesellschaft zur Foerderung der Wissenschaften …, priority 2011, dated 2015).

The test system of data set [1] is vimentin and tubulin filaments in a fixed mammalian PtK2 cell. Description: Two-colour confocal/STED microscopy, FIG. 1 and 2. More on the design: species or system Potorous tridactylus. The settings on record: single antibodies in the background, FIG. 2; for STED resolution: STED at 590 nm.
The next data set has as its system antibodies. Description: Degree of labeling of antibody conjugates. The following applies: antibody conjugate obtained from the dye or its NHS ester.
The test system of data set [2] is tubulin filaments in a fixed PtK2 cell. Description: Confocal/STED microscopy of tubulin filaments, FIG. 3. Further details: species or system Potorous tridactylus.
The test system of data set [3] is vimentin filaments in a fixed PtK2 cell. Description: Confocal/STED microscopy of vimentin filaments, FIG. 4. Further details: species or system Potorous tridactylus.

Each structure is given as a SMILES string.

Regarding `CC1(C)C=C(COP(=O)(O)O)c2cc3cc(-c4ccncc4)c(=O)oc3cc2N1CCCC(=O)O` [Compound 11], in data set [1], the STED resolution result is given as “ca. 50 nm”.

`CC1(C)C=C(COP(=O)(O)O)c2cc3cc(-c4ccncc4)c(=O)oc3cc2N1CCCC(=O)ON1C(=O)CCC1=O` [Compound 12]: the “degree of labeling (DOL) of the conjugate” value (shortened to “degree of labeling”) in the data set on antibodies was determined as 2.6. Also, in data set [1], the Confocal resolution was about 200 nm and the STED resolution is reported as about 50 nm.

As to `CC1(C)C=C(CS(=O)(=O)O)c2cc3cc(-c4ccncc4)c(=O)oc3cc2N1CCCC(=O)ON1C(=O)CCC1=O` [Compound 20-NHS, reference compound], the “degree of labeling” value in the data set with antibodies came out at 2.7.

As to `CN(CCCC(=O)O)C(=O)c1c(F)c(F)c(F)c(F)c1C1=c2cc3c4c(c2Oc2c1cc1c5c2CCCN5C(C)(C)C=C1COP(=O)(O)O)CCC[N+]=4C(C)(C)C=C3COP(=O)([O-])O` [Compound 26-H], in the data set with antibodies, the “degree of labeling” value was about 2.5.

For the molecule `CN(CCCC(=O)ON1C(=O)CCC1=O)C(=O)c1c(F)c(F)c(F)c(F)c1C1=c2cc3c4c(c2Oc2c1cc1c5c2CCCN5C(C)(C)C=C1COP(=O)(O)O)CCC[N+]=4C(C)(C)C=C3COP(=O)([O-])O` [Compound 26-NHS], the “optical resolution, confocal” value in data set [2] (FIG. 3A inset left, excitation 635 nm) is listed as about 300 nm; in data set [3] (excitation 647±5 nm), 250 nm. Further, the “optical resolution, STED” value in data set [2] (FIG. 3A inset right, pulsed STED at 750 nm, ~350 mW) is reported as 30 nm; in data set [3] (pulsed STED at 745±2 nm, ~30 mW), 50 nm.

As to `O=C1OC2(c3cc(F)c(O)cc3Oc3cc(O)c(F)cc32)c2ccccc21` [Oregon Green™ 488, reference compound], in data set [1], the Confocal resolution was about 200 nm and the STED resolution is given as about 50 nm.
